In patent US20230090156A1 (NANYANG TECHNOLOGICAL UNIVERSITY, published 2023):
These are yes or no findings as the source states them, for the method shown. Some entries that bind do so weakly or less than the wild type.

T1: human cANGPTL4 (C-terminal fragment of Angiopoietin-like 4 protein) (human) (UniProt Q9BY76)
T1 sequence (looked up): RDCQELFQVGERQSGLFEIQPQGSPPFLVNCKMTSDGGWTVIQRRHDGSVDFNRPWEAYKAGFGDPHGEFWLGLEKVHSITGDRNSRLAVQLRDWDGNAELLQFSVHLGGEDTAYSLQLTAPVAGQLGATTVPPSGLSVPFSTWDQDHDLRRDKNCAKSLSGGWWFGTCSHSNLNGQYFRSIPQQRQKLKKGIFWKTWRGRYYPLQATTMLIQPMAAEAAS


Target: T1, human cANGPTL4 (C-terminal fragment of Angiopoietin-like 4 protein) (human)
Test: indirect ELISA and SPR on human cANGPTL4

| binding | Binder |
| --- | --- |
| binds | Antuzumab 1 (antibody, V domains shown, Humanized monoclonal antibody made in CHO cells; also called ANG49; ANGH3 + ANGK3) VH: QVTLKESGPTLVKPTQTLTLTCTFSGFSLSTSGMGVGWIRQPPGKALEWLAHIWWDDDKYYNPSLKSRLTISKDTSKNQVVLTMTNMDPVDTATYYCARKDYGSSYDYWGQGTTVTVSS VL: DIVMTQSPLSLPVTPGEPASISCKASQSVDYDGDSYLNWYLQKPGQSPRLLIYTASNLESGVPDRFSGSGSGTDFTLKISRVEAEDVGVYYCFQSNEDPWTFGQGTKLEIK |
| binds | Antuzumab 3 (antibody, V domains shown, Humanized monoclonal antibody made in CHO cells; also called ANG27; ANGH1 + ANGK1) VH: QITLKESGPTLVKPTQTLTLTCTFSGFSLSTSGMGVGWIRQPPGKALEWLAHIWWDDDKYYNPSLKSRLTITKDTSKNQVVLTMTNMDPVDTATYYCARKDYGSSYDYWGQGTLVTVSS VL: DIVMTQSPDSLAVSLGERATINCKASQSVDYDGDSYLNWYQQKPGQPPKLLIYTASNLESGVPDRFSGSGSGTDFTLTISSLQAEDVAVYYCQQSNEDPWTFGQGTKVEIK |
